For experiment [1], the target named is GST-tagged pacsin 2 SH3 domain (human) (UniProt Q9UNF0). Briefly: pull-down; GST–pacsin 2 SH3 or GST beads (10 µl bed) as bait; 170 µl extract of transfected HEK293T cells; 20 mM Tris-HCl pH 7.5, 150 mM NaCl, 10% glycerol, 5 mM EDTA, 2% Triton X-100; 1 h at 4°C; anti-GFP immunoblot; only the target purified.
For experiment [2] the target is unchanged. Description: pull-down; GST–pacsin 2 SH3 or GST on glutathione beads as bait; T24 cell lysate; bound endogenous N-cadherin detected by anti-N-cadherin immunoblot; only the target purified. Background: In western blotting, separated proteins are transferred to a membrane and probed.

Sequences of proteins named here, by UniProt entry; tags and fusion partners are left off. A change or cut given only in a name is not applied to a line headed by its entry. A line that says so, or that is headed by a name, gives the form on record, which may keep a tag or linker. Residues count along the entry.
UniProt Q9UNF0, residues 426-486: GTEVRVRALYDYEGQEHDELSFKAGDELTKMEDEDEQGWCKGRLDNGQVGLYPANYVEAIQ
endogenous N-cadherin in T24 cells (P19022, residues 160-906): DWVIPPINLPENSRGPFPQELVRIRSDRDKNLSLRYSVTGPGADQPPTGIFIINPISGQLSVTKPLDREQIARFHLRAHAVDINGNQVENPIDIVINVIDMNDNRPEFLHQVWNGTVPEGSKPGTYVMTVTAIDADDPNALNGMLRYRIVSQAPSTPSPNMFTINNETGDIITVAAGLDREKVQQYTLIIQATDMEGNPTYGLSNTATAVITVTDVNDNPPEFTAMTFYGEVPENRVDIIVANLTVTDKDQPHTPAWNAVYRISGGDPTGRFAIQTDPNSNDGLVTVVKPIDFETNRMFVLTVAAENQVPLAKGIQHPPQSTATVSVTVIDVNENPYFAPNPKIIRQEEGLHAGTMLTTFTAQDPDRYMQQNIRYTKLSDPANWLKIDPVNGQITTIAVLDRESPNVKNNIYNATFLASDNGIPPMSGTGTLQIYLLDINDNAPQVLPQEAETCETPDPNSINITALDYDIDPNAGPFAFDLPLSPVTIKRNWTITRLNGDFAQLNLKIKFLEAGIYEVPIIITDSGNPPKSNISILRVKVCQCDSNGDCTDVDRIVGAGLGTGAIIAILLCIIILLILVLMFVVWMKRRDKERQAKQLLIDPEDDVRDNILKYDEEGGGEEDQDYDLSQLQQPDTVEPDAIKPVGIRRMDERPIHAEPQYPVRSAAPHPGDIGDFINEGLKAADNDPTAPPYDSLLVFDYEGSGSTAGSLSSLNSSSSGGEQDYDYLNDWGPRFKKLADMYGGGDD
GFP-tagged N-cadherin cytoplasmic domain, wild type (P19022, residues 746-906): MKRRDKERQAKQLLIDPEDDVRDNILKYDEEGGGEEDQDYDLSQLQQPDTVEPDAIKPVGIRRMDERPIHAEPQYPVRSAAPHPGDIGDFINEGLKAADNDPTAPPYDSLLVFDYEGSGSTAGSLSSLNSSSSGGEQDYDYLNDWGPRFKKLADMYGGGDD
GFP-tagged N-cadherin cytoplasmic domain P818/821A (P19022-1, form named): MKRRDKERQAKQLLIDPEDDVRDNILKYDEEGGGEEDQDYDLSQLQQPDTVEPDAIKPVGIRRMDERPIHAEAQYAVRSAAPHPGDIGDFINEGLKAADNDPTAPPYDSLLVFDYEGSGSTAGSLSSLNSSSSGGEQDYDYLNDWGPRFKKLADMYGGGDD
GFP-tagged N-cadherin cytoplasmic domain P847/850/851A (P19022-1, form named): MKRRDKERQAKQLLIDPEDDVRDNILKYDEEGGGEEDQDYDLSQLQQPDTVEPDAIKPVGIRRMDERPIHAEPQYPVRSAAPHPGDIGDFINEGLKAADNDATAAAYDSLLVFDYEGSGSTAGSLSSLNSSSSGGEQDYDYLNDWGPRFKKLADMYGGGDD

No constants are given. Whether binding was seen depends on the method and setting. In cells and extracts the contact can be indirect. Some results given as binding are weak or reduced against the parent protein; the word gives no strength.

“GFP-tagged N-cadherin cytoplasmic domain P818/821A (from UniProt P19022-1 746-906) (domain or fragment)”: the binding entry in experiment [1] was “binds”.

On to “GFP-tagged N-cadherin cytoplasmic domain P847/850/851A (from UniProt P19022-1 746-906) (domain or fragment)”, for which the binding result in experiment [1] was “binds”.

“GFP-tagged N-cadherin cytoplasmic domain, wild type (from UniProt P19022-1 746-906) (domain or fragment)”: in experiment [1], the binding result is reported as “binds”.

Consider “endogenous N-cadherin in T24 cells (from UniProt P19022-1 160-906)”, for which, in experiment [2], the binding entry is reported as “binds”.

The values are drawn from publication PMC10281519.
